Source: article PMC4755545
Where a chain is given by its changes, count along the chain named. Numbers in names are those of the source. Results are given in words; binding and its absence hold for the method and conditions named. Binding seen in cells or lysates may run through a third protein. Some entries that bind do so weakly or less than the wild type. Tags and fused reporters may be left off the sequences shown.

T1: TAP-tagged Lid1 (Apc4), subunit of the APC/C (S. pombe) (UniProt O42839)
T1 sequence: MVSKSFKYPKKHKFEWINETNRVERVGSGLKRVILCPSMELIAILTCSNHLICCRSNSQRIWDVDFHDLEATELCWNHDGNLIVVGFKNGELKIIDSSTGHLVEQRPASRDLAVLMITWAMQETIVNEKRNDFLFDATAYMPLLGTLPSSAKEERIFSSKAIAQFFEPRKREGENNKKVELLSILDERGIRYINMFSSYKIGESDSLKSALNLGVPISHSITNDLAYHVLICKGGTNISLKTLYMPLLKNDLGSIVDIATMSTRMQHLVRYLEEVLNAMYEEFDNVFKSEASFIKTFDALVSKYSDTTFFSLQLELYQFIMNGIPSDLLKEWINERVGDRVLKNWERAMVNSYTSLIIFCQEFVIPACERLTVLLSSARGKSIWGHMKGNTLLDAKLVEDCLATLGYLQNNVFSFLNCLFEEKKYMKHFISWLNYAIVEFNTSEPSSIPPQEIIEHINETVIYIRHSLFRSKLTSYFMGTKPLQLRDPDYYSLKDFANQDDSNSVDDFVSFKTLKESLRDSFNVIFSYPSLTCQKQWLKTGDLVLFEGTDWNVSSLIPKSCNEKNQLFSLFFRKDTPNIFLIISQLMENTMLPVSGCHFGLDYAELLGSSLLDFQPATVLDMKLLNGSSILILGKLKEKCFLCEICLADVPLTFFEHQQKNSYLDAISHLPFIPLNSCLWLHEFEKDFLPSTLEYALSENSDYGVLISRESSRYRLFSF

T2: Cdc20^Slp1 with an internally-engineered 3xFLAG tag (S. pombe) (UniProt P78972)
T2 sequence: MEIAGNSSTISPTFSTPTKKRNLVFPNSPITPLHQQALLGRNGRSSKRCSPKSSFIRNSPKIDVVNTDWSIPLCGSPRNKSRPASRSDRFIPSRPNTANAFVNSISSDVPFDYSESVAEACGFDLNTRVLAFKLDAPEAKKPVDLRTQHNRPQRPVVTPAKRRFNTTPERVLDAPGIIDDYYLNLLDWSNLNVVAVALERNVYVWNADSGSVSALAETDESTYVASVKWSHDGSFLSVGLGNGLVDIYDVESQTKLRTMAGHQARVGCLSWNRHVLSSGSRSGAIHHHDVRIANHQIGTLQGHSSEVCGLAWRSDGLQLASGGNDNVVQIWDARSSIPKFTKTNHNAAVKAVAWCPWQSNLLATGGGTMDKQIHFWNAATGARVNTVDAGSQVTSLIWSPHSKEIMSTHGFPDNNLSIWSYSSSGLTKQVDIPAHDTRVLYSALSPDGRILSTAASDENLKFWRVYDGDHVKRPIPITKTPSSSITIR

B1: Mad3p tagged with GFP (wild type) (protein, UniProt O59767 1-310)
chain: MEPLDAGKNWVHMDVIEQSKENIEPRKAGHSASALAKSSSRNHTEKEVAGLQKERMGHERKIETSESLDDPLQVWIDYIKWTLDNFPQGETKTSGLVTLLERCTREFVRNPLYKDDVRYLRIWMQYVNYIDEPVELFSFLAHHHIGQESSIFYEEYANYFESRGLFQKADEVYQKGKRMKAKPFLRFQQKYQQFTHRWLEFAPQSFSSNTNSVNPLQTTFESTNIQEISQSRTKISKPKFKFSVYSDADGSGKDGQPGTWQTLGTVDQRRKENNISATSWVGEKLPLKSPRKLDPLGKFQVHCDEEVSKE
B2: Mad2p (wild type) (protein, UniProt O14417 1-203)
chain: MSSVPIRTNFSLKGSSKLVSEFFEYAVNSILFQRGIYPAEDFKVVRKYGLNMLVSVDEEVKTYIRKIVSQLHKWMFAKKIQKLILVITSKCSGEDLERWQFNVEMVDTADQFQNIGNKEDELRVQKEIQALIRQITATVTFLPQLEEQCTFNVLVYADKDSEVPTDWVDSDPRILRDAEQVQLRSFSTSMHKIDCQVAYRVNP
B3: Mad2-S92A (protein, UniProt O14417 1-203)
chain: B2 chain with S92A

Assays:
[1] = molecular target: T1, TAP-tagged Lid1 (Apc4), subunit of the APC/C (S. pombe); assay: co-IP; Apc4-TAP pulled down with IgG Dynabeads from extracts of cdc25-22 cells released from G2 into mitosis at 25°C, carbendazim added after 20 min, time points every 15 min; blots for Mad3p (anti-GFP) and Mad2p; lysis buffer 50 mM HEPES pH 7.5, 75 mM KCl, 0.1% TritonX-100; strains wild type, mad3-KEN1, mad3-KEN2, mad3-C9A, mad2-S92A, mad3-C9A mad2-S92A
[2] = molecular target: T2, Cdc20^Slp1 with an internally-engineered 3xFLAG tag (S. pombe); assay: co-IP; Cdc20^Slp1-3xFLAG immunoprecipitated with anti-FLAG (M2) antibodies on Dynabeads from native extracts of cdc25-22 cells released from G2 into mitosis at 25°C, time points every 15 min; blots for Mad3p (anti-GFP) and Mad2p; strains wild type, mad3-C9A, mad2-S92A, mad3-C9A mad2-S92A, mps1-kd
[3] = molecular target: T1, TAP-tagged Lid1 (Apc4), subunit of the APC/C (S. pombe); assay: co-IP; as a2, in the mad3-KEN1 strain: Apc4-TAP pulled down with IgG Dynabeads, blot for Mad2p

Row | Binder | binding [1] | binding [2] | binding [3]
1 | B1 | binds | binds | 
2 | B2 | binds | binds | no binding (condition: in the mad3-KEN1 strain)
3 | B3 | binds | binds | 
